In PubChem BioAssay AID2417 (National Center for Advancing Translational Sciences (NCATS), 2010):
The campaign covered roughly 140,000 compounds. About 4,300 (3.1%) were called active. Inconclusive results, whose numbers are uncertain, are shown with a selection of clear calls.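 Rule for the calls: active = readout at or below -70, meaning at least 70% loss of cells showing the perinucleolar compartment, a nuclear body marking cancer cells; inconclusive = readout between -30 and a set limit; inactive = the rest.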

Experiment: High Content Assay for Compounds that inhibit the Assembly of the Perinucleolar Compartment;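 note: plate controls were DMSO wells for no effect and camptothecin positive control wells for full effect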
Conditions: PC3M PTB-GFP, PNC prevalence imaging, 16 h; at 10 µM; active compounds read low
In short: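 PC3M cells stably expressing PTB-GFP, 750–1000 cells/well, treated 16 h at 37 °C with compound (23 nl of library stock), in duplicate. After paraformaldehyde fixation and Hoechst stain, imaged at 20x; PNC prevalence scored by image analysis.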

Compound | activity change (PNC), negative = inhibition
O=C(CSc1nnc(-c2ccc3c(c2)OCO3)o1)Nc1ncc(Cl)cc1Cl | inconclusive: -60%
COc1ccc2c(CSc3nnc(-c4cccnc4)n3-c3ccccc3F)cc(=O)oc2c1 | inconclusive: -71%
Cc1ccc(-c2nnc3ccc(SCC(=O)NCc4ccco4)nn23)cc1 | inconclusive: -36.2%
CCCn1nc2cc(C(=O)NCc3ccc(OC(F)(F)F)cc3)ccc2c1OCC | inconclusive: -63.1%
COc1cccc(C(c2c(C)[nH]n(-c3ccccc3)c2=O)c2c(C)[nH]n(-c3ccccc3)c2=O)c1OC | inactive: 5.95%
Cc1ccc(-c2nn(-c3ccccc3)cc2CO)o1 | inconclusive: -40.7%
CC1CCCN(CCCNC(=O)CCn2nc(-c3ccccc3)ccc2=O)C1 (stereo unspecified) | inactive: 6.01%
CN(Cc1ccccc1)C(=O)Cn1c(=O)oc2cc(S(=O)(=O)NCc3ccccc3)ccc21 | inconclusive: -39.8%
COC(=O)NNC(=O)/C=C/c1ccccc1 | inconclusive: -38.2%
COc1ccc(C2C(C#N)=C(N)OC3=C2C(=O)CCC3)cc1Cn1cc([N+](=O)[O-])cn1 (stereo unspecified) | inconclusive: -36.7%
O=C(c1cc2nc(C3CC3)cc(C(F)F)n2n1)N1CCOCC1 | inconclusive: -37.7%
Cc1nn(Cc2ccccc2)c(C)c1N | active: -90.3%
O=C(NCc1ccc(Cl)cc1)c1ccc(Br)o1 | inconclusive: -45.8%
CC(=O)Nc1ccc([C@H]2[C@H](C)CC[C@H]3C(=O)N4[C@@H](CC[C@@H](C)[C@@H]4c4ccc(NC(C)=O)cc4)C(=O)N32)cc1 | inconclusive: -45.8%
CCOc1cc(C)c(S(=O)(=O)Nc2ccc3cn[nH]c3c2)cc1C | inactive: -10.8%
CSc1ccccc1NC(=O)c1c(Br)cnn1C | inconclusive: -58.1%
O=C(c1ccc(N2CCCC2=O)cc1)N1CCOCC1 | active: -85.5%
CC1CCCCC1NC(=O)CSc1nc2ccccc2c(=O)n1Cc1ccco1 (stereo unspecified) | inactive: 1.9%
CCOCCc1nnc(NC(=O)COC)s1 | inconclusive: -67.9%

Compound | activity change (PNC), negative = inhibition
CCOC(=O)C1CCCN(c2c(NCCN(C)Cc3ccccc3)c(=O)c2=O)C1 (stereo unspecified) | inactive: 17.5%
Cc1cc(=O)oc2c(CN3CCC(C)CC3)c(O)c(Cl)cc12 | inconclusive: -79.2%
CCn1c(SCC(=O)Nc2nonc2C)nnc1-c1ccco1 | inactive: -8.58%
COc1ccc(-n2nnc3c(=O)n(CC(=O)N4CCCc5ccccc54)cnc32)cc1 | inactive: -10.2%
O=C(CN1CCC(c2nc3ccccc3s2)CC1)NCc1ccccc1 | inconclusive: -42.3%
COC1(OC)N=C(N)C2(C#N)C(c3ccc4c(c3)OCO4)C12C#N (stereo unspecified) | inconclusive: -49%
Cc1cc(=O)oc2cc(OC(C)C(=O)N3CCCc4ccccc43)ccc12 (stereo unspecified) | inconclusive: -73.4%
CCOC(=O)c1[nH]c(C)c(CN(CCc2ccccc2)S(C)(=O)=O)c1C | inconclusive: -48%
Oc1c(N=Nc2ccccn2)ccc2ccccc12 | inactive: 86.2%
Cc1nc2ccccc2nc1OCC(=O)Nc1cc(C(F)(F)F)ccc1N1CCOCC1 | inconclusive: -46.5%
Oc1ccc(Nc2nc3ccccc3nc2Nc2ccc(O)cc2)cc1 | inactive: 1.21%
O=C(NC(NC(=S)Nc1ccc(Cl)cc1Cl)C(Cl)(Cl)Cl)c1cccc([N+](=O)[O-])c1 (stereo unspecified) | inactive: 106%
COC(=O)NC1CCC(CC2CCC(NC(=O)OC)CC2)CC1 (stereo unspecified) | inconclusive: -32.2%
CCS(=O)(=O)n1nc(-c2ccc(Cl)cc2)nc1SC | inactive: 10.2%
CCN(CC)S(=O)(=O)c1ccc(C)c(NC(=O)CSc2nc3ccccc3[nH]2)c1 | active: -92.3%
CCOC(=O)c1ccccc1NC1CC(=O)N(c2ccccc2C)C1=O (stereo unspecified) | inactive: 17.4%
CCC(C)(C)NC(=O)C(c1cccn1C)N(Cc1ccc(C)cc1)C(=O)Cn1nnc2ccccc21 (stereo unspecified) | inactive: 27.9%
Cc1cc(C(=O)NCc2cccs2)ccc1[N+](=O)[O-] | inconclusive: -43.8%
CCOC(=O)C1CCN(c2cc(C)nc3cc(-c4cccc(F)c4)nn23)CC1 | inconclusive: -34.6%

Looked up one by one from above:
Compound | activity change (PNC), negative = inhibition
Cc1ccc(-c2nn(-c3ccccc3)cc2CO)o1 | inconclusive: -40.7%
O=C(NCc1ccc(Cl)cc1)c1ccc(Br)o1 | inconclusive: -45.8%
CC(=O)Nc1ccc([C@H]2[C@H](C)CC[C@H]3C(=O)N4[C@@H](CC[C@@H](C)[C@@H]4c4ccc(NC(C)=O)cc4)C(=O)N32)cc1 | inconclusive: -45.8%

The list continues:

Compound | activity change (PNC), negative = inhibition
CCCn1cc(SCC(=O)NCc2ccc3c(c2)OCO3)c2ccccc21 | inconclusive: -36.8%
Cc1ccccc1NC(=O)Cc1nnc(SCC(=O)c2ccc(Br)cc2)n1C | inconclusive: -48.2%
CN(Cc1ccccc1)Cc1nc2c(c(=O)n(C)c(=O)n2C)n1CCCc1ccccc1 | inconclusive: -36.7%
COc1ccc(CCNC(=O)CSc2nnc(Cc3csc(N)n3)n2C)cc1OC | active: -94.9%
COc1ccc(Cl)cc1Nc1nc(C)cc(C)c1C(N)=O | inconclusive: -43.9%
COc1ccc(C2=NOC(C(=O)Nc3cccnc3)C2)cc1 (stereo unspecified) | active: -102%
Cc1ccc(Cl)cc1N1CCN(C(=O)c2cc3c(=O)[nH]c4ccccc4c3n2C)CC1 | inconclusive: -38.3%
Cc1nn(Cc2ccc(Cl)cc2)c(C)c1NC(=O)c1noc2c1CCCCC2 | inconclusive: -62%
CCOC(=O)c1nc(C)n(-c2ccc(Cl)cc2)n1 | inconclusive: -42.6%
CC(=O)c1nc2ccccc2n1S(=O)(=O)c1ccc(C)cc1 | inconclusive: -63.9%
O=C(NC1CCCCC1)C1CC(O)CN1C(=O)OCc1ccccc1 (stereo unspecified) | inconclusive: -44.1%
CCOc1ccc(-n2c(N)c(-c3nc4ccccc4n3C)c3nc4ccccc4nc32)cc1 | inconclusive: -53.7%
O=c1[nH][nH]c(-c2ccccc2O)c1C(C[N+](=O)[O-])c1ccc(Br)cc1 (stereo unspecified) | inactive: -2.13%
O=C(Nc1ccc(N2CCOCC2)cc1)c1cccc(S(=O)(=O)N2CCCC2)c1 | inactive: -15.2%
CN1c2ccccc2C(C)(C)C12CC(c1ccc(S(=O)(=O)N3CCCCC3)cc1)=NO2 (stereo unspecified) | inconclusive: -75%
COc1ccc(-n2ncc3c(SCC(=O)N4CCN(c5ccccc5OC)CC4)ncnc32)cc1 | active: -119%
Cc1ccc(-c2nc3ncccc3o2)cc1NC(=O)CC(C)C | inactive: 53%
COc1ccc(-c2cc(-c3ccccc3)c(C#N)c(S(C)(=O)=O)n2)cc1 | inconclusive: -52.8%
